{
  "source": "the supplement of paper PMC7125110",
  "parents": {"B1": {"name": "glmS ribozyme (parent)", "chain": "AUAAAAGCGCCAGAACUACAGAAAUGUAGUUGACGAGGAGGAGGUUUAUCGAAUUUUCGGCGGAUGCCUCCAAA"}},
  "note": "± gives the standard error. For some of these results: Many of these values have a large error.",
  "data": [
    {"variants_of": "B1", "assay": "self-cleavage kobs at 640 uM GlcN6P; higher = faster cleavage; RNA array", "conditions": "with glucosamine-6-phosphate", "in_short": "(§1)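 Glucosamine-6-phosphate, from 40 μM to 10 mM in HEPES/KCl/Mg(OAc)2 buffer, was flowed over sequenced MiSeq chips carrying barcoded ribozyme variants transcribed in situ by E. coli RNA polymerase. A hybridised Cy3 probe tracked the variants at 37 °C as tiles were imaged over ~14 h. kobs, kcat and KM were obtained by fitting normalised per-tile medians to exponential decays and then applying weighted Michaelis–Menten fits across concentrations.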", "units": {"self-cleavage kobs at 640 uM GlcN6P": "s⁻¹"}, "values": [
      {"variant": "U30G C67U C71G", "self-cleavage kobs at 640 uM GlcN6P": "6.61e-05 ± 3.6e-05"},
      {"variant": "C50A A53G C58U U69C", "self-cleavage kobs at 640 uM GlcN6P": "4.32e-05 ± 2.3e-05"},
      {"variant": "A14U G62U C68A U69G", "self-cleavage kobs at 640 uM GlcN6P": "3.03e-05 ± 2.3e-05"},
      {"variant": "U47G U57C", "self-cleavage kobs at 640 uM GlcN6P": "3.07e-05 ± 2.7e-05"},
      {"variant": "A6C C10U C67G U69A", "self-cleavage kobs at 640 uM GlcN6P": "3.16e-05 ± 2.2e-05"},
      {"variant": "G29A A64G C67G", "self-cleavage kobs at 640 uM GlcN6P": "4.34e-05 ± 3.8e-05"},
      {"variant": "G7C C11A C50U U54C C58A C70A", "self-cleavage kobs at 640 uM GlcN6P": "0.00187 ± 0.0017"},
      {"variant": "A14C C16U G29C G60A C68U", "self-cleavage kobs at 640 uM GlcN6P": "3.4e-05 ± 2.6e-05"},
      {"variant": "A6U C16U C68U", "self-cleavage kobs at 640 uM GlcN6P": "4.4e-05 ± 3e-05"},
      {"variant": "C58U U69C", "self-cleavage kobs at 640 uM GlcN6P": "1.32e-05 ± 1.3e-05"},
      {"variant": "G13U C58U C67G", "self-cleavage kobs at 640 uM GlcN6P": "3.47e-05 ± 2.6e-05"},
      {"variant": "G7A G66U", "self-cleavage kobs at 640 uM GlcN6P": "0.00363 ± 0.0035"},
      {"variant": "A52G G59C A64U C68A", "self-cleavage kobs at 640 uM GlcN6P": "3.84e-05 ± 2.2e-05"}
    ]},
    {"variants_of": "B1", "assay": "self-cleavage kobs at 2500 uM GlcN6P; higher = faster cleavage; RNA array", "conditions": "with glucosamine-6-phosphate", "in_short": "as §1", "units": {"self-cleavage kobs at 2500 uM GlcN6P": "s⁻¹"}, "values": [
      {"variant": "A14G C50U U55C", "self-cleavage kobs at 2500 uM GlcN6P": "2.51e-05 ± 1.7e-05"},
      {"variant": "C50A A53G C58U U69C", "self-cleavage kobs at 2500 uM GlcN6P": "4.01e-05 ± 2e-05"},
      {"variant": "A14U G62U C68A U69G", "self-cleavage kobs at 2500 uM GlcN6P": "3.52e-05 ± 2.9e-05"},
      {"variant": "A14G G29C U47G", "self-cleavage kobs at 2500 uM GlcN6P": "2.09e-05 ± 1.8e-05"},
      {"variant": "A6U C16U A39U", "self-cleavage kobs at 2500 uM GlcN6P": "1.93e-05 ± 1.5e-05"},
      {"variant": "A33C C50G U54A C61U", "self-cleavage kobs at 2500 uM GlcN6P": "3.79e-05 ± 2e-05"},
      {"variant": "G44A A52G", "self-cleavage kobs at 2500 uM GlcN6P": "3.02e-05 ± 1.8e-05"},
      {"variant": "G7C C8G C50G U55A", "self-cleavage kobs at 2500 uM GlcN6P": "4.98e-05 ± 3.3e-05"},
      {"variant": "C16U G32A A33G C58U C70G", "self-cleavage kobs at 2500 uM GlcN6P": "3.23e-05 ± 3.2e-05"},
      {"variant": "A42G C61A C67A", "self-cleavage kobs at 2500 uM GlcN6P": "6.94e-05 ± 4.2e-05"},
      {"variant": "U31A A33U", "self-cleavage kobs at 2500 uM GlcN6P": "2.37e-05 ± 1.5e-05"},
      {"variant": "G13C C58G", "self-cleavage kobs at 2500 uM GlcN6P": "1.25e-05 ± 9e-06"},
      {"variant": "G13U C58U C67G", "self-cleavage kobs at 2500 uM GlcN6P": "3.33e-05 ± 2.2e-05"}
    ]},
    {"variants_of": "B1", "assay": "self-cleavage kobs at 160 uM GlcN6P; higher = faster cleavage; RNA array", "conditions": "with glucosamine-6-phosphate", "in_short": "as §1", "units": {"self-cleavage kobs at 160 uM GlcN6P": "s⁻¹"}, "values": [
      {"variant": "A14U G62U C68A U69G", "self-cleavage kobs at 160 uM GlcN6P": "3.9e-05 ± 2.7e-05"},
      {"variant": "C16A C50A U69C", "self-cleavage kobs at 160 uM GlcN6P": "2.79e-05 ± 2.3e-05"},
      {"variant": "A12G C70A", "self-cleavage kobs at 160 uM GlcN6P": "2.98e-05 ± 1.6e-05"},
      {"variant": "U30A U45G", "self-cleavage kobs at 160 uM GlcN6P": "4.01e-05 ± 2.2e-05"},
      {"variant": "U46C U69G", "self-cleavage kobs at 160 uM GlcN6P": "3.93e-05 ± 2.3e-05"}
    ]},
    {"variants_of": "B1", "assay": "self-cleavage kobs at 40 uM GlcN6P; higher = faster cleavage; RNA array", "conditions": "with glucosamine-6-phosphate", "in_short": "as §1", "units": {"self-cleavage kobs at 40 uM GlcN6P": "s⁻¹"}, "values": [
      {"variant": "G29C C67A C71U", "self-cleavage kobs at 40 uM GlcN6P": "3.55e-05 ± 2.1e-05"},
      {"variant": "U47A C70A", "self-cleavage kobs at 40 uM GlcN6P": "1.68e-05 ± 1.5e-05"},
      {"variant": "C34U U49C C50G C61U C68G C71G", "self-cleavage kobs at 40 uM GlcN6P": "0.000628 ± 0.00033"},
      {"variant": "G7U A15U C50G A53U U55G G62U", "self-cleavage kobs at 40 uM GlcN6P": "0.000122 ± 6.2e-05"},
      {"variant": "C16U U31G C70A", "self-cleavage kobs at 40 uM GlcN6P": "3.74e-05 ± 2.9e-05"},
      {"variant": "C11U A14G C70G", "self-cleavage kobs at 40 uM GlcN6P": "5.52e-05 ± 3.1e-05"},
      {"variant": "C16A U47A", "self-cleavage kobs at 40 uM GlcN6P": "2.21e-05 ± 1.4e-05"},
      {"variant": "C10A C67A C68A", "self-cleavage kobs at 40 uM GlcN6P": "2.91e-05 ± 2.3e-05"},
      {"variant": "G29U U54A C58G C67G", "self-cleavage kobs at 40 uM GlcN6P": "2.21e-05 ± 1.9e-05"},
      {"variant": "C11U A52C C68U C71G", "self-cleavage kobs at 40 uM GlcN6P": "3.79e-05 ± 2.5e-05"}
    ]},
    {"variants_of": "B1", "assay": "self-cleavage kobs at 10000 uM GlcN6P; higher = faster cleavage; RNA array", "conditions": "with glucosamine-6-phosphate", "in_short": "as §1", "units": {"self-cleavage kobs at 10000 uM GlcN6P": "s⁻¹"}, "values": [
      {"variant": "U47A C70A", "self-cleavage kobs at 10000 uM GlcN6P": "0.00213 ± 0.0014"},
      {"variant": "G44A A52G", "self-cleavage kobs at 10000 uM GlcN6P": "2.29e-05 ± 1.6e-05"},
      {"variant": "U31A A33U", "self-cleavage kobs at 10000 uM GlcN6P": "1.82e-05 ± 9.9e-06"},
      {"variant": "G13U C58U C67G", "self-cleavage kobs at 10000 uM GlcN6P": "2e-05 ± 1.4e-05"}
    ]},
    {"variants_of": "B1", "assay": "KM; higher = weaker cofactor use; RNA array", "conditions": "with glucosamine-6-phosphate", "in_short": "as §1", "units": {"KM": "µM"}, "values": [
      {"variant": "A64G G66A", "KM": "936 ± 460"}
    ]}
  ]
}
